What was measured:
[1] = target: MqsA (Escherichia coli K-12 MG1655) (UniProt Q46864); experiment: EMSA; conditions: residues 1-131; letters put together from the description
[2] = target: MqsA (Escherichia coli K-12 MG1655) (UniProt Q46864); experiment: DNase I footprinting; conditions: residues 1-131; letters put together from the description

Chains of the proteins cited; added tags and fusions are not shown. Lines headed by an entry give the natural chain unless they say otherwise; changes in a name come on top.
UniProt Q46864: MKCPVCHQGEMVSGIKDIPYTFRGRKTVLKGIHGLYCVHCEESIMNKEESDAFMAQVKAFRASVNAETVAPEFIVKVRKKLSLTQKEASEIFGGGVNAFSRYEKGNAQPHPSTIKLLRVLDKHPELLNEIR

Sequence	binding result [1]	binding result [2]
GATTGCGTAGCAGGGCCACTGGTATCTGCCGGTATCACCGACATTAACATTGAAGACGACCAGGGCATTCACGTCCGCCTGATAGTTCGTGATGCCGAAGGTCGGATGGTTGGCGGGCATGGAACTTTGAACCGGACGCCGGTGAAGGTTTTAACCGCTATATCCACAGGTCAGGCATCCGCACCGACACCTTCCCCCGCTGACTCCGAATCATTTACCAGCAACATTTCACCTTCCCAAACGCGCTTTATTACCTCATACGCCAG (double strand) [yfjY (lfgA) promoter probe, wild type]	binds	–
GATTGCGTAGCAGGGCCACTGGTATCTGCCGGTATCACCGACATTAACATTGAAGACGACCAGGGCATTCACGTCCGCCTGATAGTTCGTGATGCCGAAGGTCGGATGGTTGGCGGGCATGGAACTTTGAACCGGACGCCGGTGAAGGTTTTAACCGCTATATCCACAGGTCAGGCATCCGCACCGACACCTTCCCCCGCTGACTCCGAATCATTTACCAGCAACATTTCACCTTCCCAAACGCGCTTTATTACCTCATACGCCAG (double strand) [FAM-yfjY promoter footprint probe]	–	binds

From article doi:10.1101/2023.09.23.559088
